In the supplement of paper PMC10849652:
The list shows a part of the results.

Amino acid sequences for entries named in this document (tags omitted). A change or cut given only in a name is not applied to a line headed by its entry.
UniProt Q9UKD1: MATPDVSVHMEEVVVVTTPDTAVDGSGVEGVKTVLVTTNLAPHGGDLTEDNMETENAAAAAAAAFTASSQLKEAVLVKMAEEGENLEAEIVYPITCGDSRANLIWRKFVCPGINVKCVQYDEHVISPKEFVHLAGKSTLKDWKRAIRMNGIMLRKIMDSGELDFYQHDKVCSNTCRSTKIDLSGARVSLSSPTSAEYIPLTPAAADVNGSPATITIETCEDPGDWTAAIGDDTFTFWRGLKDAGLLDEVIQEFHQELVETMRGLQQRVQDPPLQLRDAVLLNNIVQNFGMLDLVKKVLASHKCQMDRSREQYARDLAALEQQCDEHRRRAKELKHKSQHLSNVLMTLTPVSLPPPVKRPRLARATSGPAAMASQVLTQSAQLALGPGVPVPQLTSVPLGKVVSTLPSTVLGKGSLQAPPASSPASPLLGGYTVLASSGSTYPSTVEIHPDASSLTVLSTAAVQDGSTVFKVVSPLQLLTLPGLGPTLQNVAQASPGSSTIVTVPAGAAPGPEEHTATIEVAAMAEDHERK
UniProt Q8N2G8: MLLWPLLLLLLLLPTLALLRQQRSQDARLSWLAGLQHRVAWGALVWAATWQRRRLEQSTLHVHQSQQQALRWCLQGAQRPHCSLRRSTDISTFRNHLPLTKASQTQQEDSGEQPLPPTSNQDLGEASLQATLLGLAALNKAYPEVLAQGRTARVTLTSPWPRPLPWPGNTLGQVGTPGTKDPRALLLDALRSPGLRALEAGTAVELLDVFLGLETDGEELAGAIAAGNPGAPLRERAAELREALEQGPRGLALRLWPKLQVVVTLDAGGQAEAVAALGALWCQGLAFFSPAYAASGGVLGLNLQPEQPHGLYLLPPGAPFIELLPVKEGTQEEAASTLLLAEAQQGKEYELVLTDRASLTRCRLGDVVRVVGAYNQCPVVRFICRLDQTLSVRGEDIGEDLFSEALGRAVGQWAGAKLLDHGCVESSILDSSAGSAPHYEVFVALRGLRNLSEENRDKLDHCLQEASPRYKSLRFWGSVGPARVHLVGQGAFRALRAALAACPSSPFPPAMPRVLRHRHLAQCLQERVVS
UniProt Q14161: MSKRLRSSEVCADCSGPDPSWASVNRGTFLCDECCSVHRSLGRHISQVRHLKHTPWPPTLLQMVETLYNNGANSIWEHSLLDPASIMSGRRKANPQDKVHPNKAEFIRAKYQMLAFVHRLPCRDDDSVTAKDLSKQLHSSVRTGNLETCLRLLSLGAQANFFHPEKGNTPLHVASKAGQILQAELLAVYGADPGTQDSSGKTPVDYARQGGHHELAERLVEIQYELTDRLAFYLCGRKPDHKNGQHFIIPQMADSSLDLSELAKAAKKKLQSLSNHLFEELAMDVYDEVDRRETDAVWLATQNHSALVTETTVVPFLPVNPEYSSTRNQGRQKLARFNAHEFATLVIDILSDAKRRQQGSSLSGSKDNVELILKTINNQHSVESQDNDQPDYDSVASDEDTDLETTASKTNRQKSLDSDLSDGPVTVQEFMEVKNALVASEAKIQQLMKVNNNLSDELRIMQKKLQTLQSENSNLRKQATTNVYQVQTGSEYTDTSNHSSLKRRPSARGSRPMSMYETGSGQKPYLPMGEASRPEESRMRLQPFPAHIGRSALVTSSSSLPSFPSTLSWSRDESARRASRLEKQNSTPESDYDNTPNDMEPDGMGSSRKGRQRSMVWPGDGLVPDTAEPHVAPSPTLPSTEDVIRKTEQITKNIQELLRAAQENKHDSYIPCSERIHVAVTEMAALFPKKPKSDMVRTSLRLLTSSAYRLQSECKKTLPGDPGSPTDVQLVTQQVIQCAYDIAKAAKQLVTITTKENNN
UniProt Q8IXQ4: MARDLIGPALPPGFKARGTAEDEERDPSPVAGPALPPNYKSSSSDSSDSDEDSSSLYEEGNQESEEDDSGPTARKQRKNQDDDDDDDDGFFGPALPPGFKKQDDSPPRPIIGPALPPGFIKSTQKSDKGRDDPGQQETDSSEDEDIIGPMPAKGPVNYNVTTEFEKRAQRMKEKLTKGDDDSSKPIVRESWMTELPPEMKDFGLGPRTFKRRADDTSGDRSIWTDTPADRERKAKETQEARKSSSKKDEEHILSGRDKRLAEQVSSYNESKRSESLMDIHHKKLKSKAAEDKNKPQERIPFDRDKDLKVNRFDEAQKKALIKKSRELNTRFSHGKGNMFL
UniProt Q86SX6: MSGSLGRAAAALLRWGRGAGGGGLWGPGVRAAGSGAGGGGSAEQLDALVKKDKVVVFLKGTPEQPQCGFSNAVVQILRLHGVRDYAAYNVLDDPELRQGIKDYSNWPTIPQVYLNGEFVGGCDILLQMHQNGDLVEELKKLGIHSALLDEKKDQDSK
UniProt P13224: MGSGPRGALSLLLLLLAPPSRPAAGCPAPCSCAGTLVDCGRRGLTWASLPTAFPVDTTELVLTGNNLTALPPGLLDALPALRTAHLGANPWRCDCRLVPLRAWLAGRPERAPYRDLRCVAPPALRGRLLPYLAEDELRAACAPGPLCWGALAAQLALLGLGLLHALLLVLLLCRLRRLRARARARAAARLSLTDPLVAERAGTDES
UniProt P17174: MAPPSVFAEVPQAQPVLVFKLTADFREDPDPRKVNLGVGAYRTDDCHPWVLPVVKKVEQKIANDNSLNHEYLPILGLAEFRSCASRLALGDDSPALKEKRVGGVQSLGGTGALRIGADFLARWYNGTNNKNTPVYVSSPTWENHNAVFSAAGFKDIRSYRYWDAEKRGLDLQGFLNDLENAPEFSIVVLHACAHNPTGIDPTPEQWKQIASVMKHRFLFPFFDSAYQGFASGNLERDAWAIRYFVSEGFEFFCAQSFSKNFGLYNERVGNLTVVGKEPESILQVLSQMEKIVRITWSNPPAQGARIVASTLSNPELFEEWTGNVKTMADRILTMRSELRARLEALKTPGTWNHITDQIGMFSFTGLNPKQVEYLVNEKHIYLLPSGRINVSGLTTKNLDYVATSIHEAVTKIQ
UniProt Q14691: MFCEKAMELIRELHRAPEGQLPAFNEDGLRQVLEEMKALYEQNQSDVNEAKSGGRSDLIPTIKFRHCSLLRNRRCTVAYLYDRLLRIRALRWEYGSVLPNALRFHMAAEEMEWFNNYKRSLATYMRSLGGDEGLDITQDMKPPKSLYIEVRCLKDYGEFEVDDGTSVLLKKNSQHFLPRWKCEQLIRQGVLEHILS
UniProt Q6Y7W6: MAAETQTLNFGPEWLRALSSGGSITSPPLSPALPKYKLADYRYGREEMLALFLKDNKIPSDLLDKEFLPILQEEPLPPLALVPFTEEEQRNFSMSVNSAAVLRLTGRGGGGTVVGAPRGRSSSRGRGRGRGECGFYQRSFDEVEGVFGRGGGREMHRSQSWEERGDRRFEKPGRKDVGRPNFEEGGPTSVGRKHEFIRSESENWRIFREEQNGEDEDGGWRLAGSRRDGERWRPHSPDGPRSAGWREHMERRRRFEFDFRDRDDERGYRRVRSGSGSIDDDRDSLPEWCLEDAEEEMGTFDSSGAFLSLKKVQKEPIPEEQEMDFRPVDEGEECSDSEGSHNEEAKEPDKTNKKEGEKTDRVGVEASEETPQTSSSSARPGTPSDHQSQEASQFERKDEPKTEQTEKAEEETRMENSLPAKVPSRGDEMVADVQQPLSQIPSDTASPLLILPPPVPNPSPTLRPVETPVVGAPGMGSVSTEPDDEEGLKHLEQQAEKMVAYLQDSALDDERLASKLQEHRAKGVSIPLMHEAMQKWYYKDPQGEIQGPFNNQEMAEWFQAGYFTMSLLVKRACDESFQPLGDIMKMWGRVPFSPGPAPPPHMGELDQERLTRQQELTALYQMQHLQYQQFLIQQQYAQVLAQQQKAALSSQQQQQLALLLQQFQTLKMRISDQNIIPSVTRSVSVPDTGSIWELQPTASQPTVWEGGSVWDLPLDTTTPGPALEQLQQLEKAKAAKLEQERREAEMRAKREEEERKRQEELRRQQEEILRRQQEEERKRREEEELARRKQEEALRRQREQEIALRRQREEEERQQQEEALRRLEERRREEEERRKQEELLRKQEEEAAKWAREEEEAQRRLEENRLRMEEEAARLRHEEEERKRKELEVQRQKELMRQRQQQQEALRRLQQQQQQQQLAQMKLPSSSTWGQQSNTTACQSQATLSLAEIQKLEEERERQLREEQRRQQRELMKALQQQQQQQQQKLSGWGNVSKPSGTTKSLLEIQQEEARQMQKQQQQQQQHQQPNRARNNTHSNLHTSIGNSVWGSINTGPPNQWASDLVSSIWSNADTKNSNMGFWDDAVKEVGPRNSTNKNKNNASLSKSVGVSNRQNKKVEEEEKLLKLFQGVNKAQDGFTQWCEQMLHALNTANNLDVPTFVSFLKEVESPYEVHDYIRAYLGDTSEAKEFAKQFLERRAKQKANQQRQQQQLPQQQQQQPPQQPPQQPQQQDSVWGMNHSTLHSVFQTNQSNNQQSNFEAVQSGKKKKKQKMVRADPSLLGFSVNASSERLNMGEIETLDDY
UniProt Q9H3C7, whole entry, looked up: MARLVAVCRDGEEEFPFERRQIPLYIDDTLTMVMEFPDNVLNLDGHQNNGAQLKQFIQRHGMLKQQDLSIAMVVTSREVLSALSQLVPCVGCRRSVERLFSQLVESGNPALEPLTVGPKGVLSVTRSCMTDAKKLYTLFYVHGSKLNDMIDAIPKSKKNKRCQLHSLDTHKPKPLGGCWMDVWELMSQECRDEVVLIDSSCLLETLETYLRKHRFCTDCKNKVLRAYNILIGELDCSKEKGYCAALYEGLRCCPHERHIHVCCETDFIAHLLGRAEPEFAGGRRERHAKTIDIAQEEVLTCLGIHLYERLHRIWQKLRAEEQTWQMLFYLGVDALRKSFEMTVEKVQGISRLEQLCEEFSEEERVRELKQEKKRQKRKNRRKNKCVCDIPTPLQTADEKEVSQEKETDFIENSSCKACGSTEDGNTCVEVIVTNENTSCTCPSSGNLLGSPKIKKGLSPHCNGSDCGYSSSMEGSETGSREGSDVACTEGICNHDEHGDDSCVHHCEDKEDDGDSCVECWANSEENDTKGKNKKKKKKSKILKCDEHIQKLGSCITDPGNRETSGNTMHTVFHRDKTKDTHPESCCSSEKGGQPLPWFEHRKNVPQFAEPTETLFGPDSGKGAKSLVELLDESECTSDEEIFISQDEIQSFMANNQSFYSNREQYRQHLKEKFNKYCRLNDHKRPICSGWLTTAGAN
UniProt Q92896: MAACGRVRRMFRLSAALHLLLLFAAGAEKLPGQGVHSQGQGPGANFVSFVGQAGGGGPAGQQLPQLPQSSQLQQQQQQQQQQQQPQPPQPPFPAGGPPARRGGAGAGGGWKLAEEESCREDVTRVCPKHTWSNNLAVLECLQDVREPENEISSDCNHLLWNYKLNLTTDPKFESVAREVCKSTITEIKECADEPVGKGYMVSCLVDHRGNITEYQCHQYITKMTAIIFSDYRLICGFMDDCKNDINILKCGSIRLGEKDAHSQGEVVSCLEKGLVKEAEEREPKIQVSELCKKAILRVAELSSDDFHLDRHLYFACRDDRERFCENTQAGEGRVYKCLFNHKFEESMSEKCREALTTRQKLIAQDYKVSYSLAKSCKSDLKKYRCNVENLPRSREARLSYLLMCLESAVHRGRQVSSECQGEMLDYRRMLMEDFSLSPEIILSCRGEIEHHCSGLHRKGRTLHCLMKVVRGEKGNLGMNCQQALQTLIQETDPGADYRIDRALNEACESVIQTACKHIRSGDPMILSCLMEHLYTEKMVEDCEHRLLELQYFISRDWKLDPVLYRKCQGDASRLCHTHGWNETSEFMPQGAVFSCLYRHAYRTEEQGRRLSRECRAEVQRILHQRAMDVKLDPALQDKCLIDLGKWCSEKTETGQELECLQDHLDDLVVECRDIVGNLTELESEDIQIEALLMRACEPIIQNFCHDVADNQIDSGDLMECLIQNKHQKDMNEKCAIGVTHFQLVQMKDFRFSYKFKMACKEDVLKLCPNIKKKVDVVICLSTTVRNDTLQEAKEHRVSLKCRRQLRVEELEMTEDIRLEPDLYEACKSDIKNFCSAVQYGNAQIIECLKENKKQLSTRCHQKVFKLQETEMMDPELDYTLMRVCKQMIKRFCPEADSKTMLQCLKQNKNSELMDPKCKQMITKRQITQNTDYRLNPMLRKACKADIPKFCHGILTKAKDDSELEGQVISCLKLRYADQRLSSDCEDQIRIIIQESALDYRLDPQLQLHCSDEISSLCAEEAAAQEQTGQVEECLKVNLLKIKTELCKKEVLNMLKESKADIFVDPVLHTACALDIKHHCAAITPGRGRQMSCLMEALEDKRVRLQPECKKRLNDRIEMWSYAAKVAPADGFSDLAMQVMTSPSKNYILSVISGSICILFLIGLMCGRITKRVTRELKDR

Key:
Assay in all cases: log2 fold change, soluble protein after heating vs DMSO (PISA); higher = thermal stabilisation; K562 lysate, 10 uM; active = over 0.2 and 3.5 SD of the protein, either way, in both replicates (recomputed)
[1] = compound: C#Cc1cccc(Nc2ncnc3cc(OCCOC)c(OCCOC)cc23)c1 [erlotinib]
Procedure, shortened: (§1)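 Dounce homogenisation of K562 pellets in PBS pH 7.4 with 1 mM MgCl2 produced a crude extract, used at 1 mg/mL protein. Exposure to 10 μM compound lasted 30 min, and aliquots were then heated for 3 min across 48°C-58°C, pooled and brought to 0.5% NP-40 at 4°C. The supernatant after 21,000xg for 90 min was quantified by TMTpro 16plex LC-MS/MS with channel sums equalised. Duplicate values are given as log-two fold change in thermal stability relative to solvent controls.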

[2] = compound: C/C(=N\NC(=O)C1=CC(=CC=C1)S(=O)(=O)N2CCOCC2)/C3=C(C=CC(=C3)Cl)O
Procedure, shortened: as §1

[3] = compound: C1=CC(=CC=C1C2=NC3=C(N2)C=C(C=C3)C(=O)N)OC4=CC=C(C=C4)Cl
Procedure, shortened: as §1

[4] = compound: C1=CC2=C(C=CC(=C2)/C=C\3/C(=O)NC(=NCC4=CC=CS4)S3)N=C1
Procedure, shortened: as §1

[5] = compound: C1=CC2=NC=CN=C2C=C1/C=C/3\C(=O)NC(=O)S3
Procedure, shortened: as §1

[6] = compound: C1=CC=C(C=C1)C2=NC(=C(N2)C3=CC=NC=C3)C4=CC(=C(C=C4)Cl)O
Procedure, shortened: as §1

[7] = compound: C1=CC=C2C(=C1)C3=NNC4=CC=CC(=C43)C2=O
Procedure, shortened: as §1

[8] = compound: C1CCN(C1)C(=O)NC2=CC=CC(=C2)NC3=NC=C(C(=N3)NCCC4=CN=CN4)Br
Procedure, shortened: as §1

[9] = compound: C1CN(CCC1(CC2=CC=C(C=C2)Cl)N)C3=NC=NC4=C3C=CN4
Procedure, shortened: as §1

[10] = compound: C1COCCN1CCN2C3=CC=CC=C3N=C2NC(=O)C4=CC(=CC=C4)[N+](=O)[O-] [IRAK-1-4 Inhibitor I]
Procedure, shortened: as §1

[11] = compound: C=CC(=O)N1CCC[C@@H](n2nc(-c3ccc(Oc4ccccc4)cc3)c3c(N)ncnc32)C1 [ibrutinib]
Procedure, shortened: as §1

[12] = compound: CC(=O)c1cnc2ccc(-c3cc(Cl)c(O)c(Cl)c3)nc2c1N[C@H]1CC[C@H](CN(C)C)CC1
Procedure, shortened: as §1

[13] = compound: CC(C)(C)Cn1c(N)nc2ccc(-c3[nH]c(C(C)(C)C)nc3-c3ccc(F)cc3)nc21 [ralimetinib]
Procedure, shortened: as §1

[14] = compound: CC(C)(O)CC(=O)NCCn1ccc2ncnc(Nc3ccc(Oc4cccc(C(F)(F)F)c4)c(Cl)c3)c21
Procedure, shortened: as §1

[15] = compound: CC(C)C1=C2N=C(C=C(N2N=C1)NCC3=CC=CC=C3)NCCCCCCN
Procedure, shortened: as §1

[16] = compound: CC1=C(C(CC(=O)N1)C2=CC=C(C=C2)C(F)(F)F)C(=O)NC3=C(C=C4C(=C3)C=NN4)F
Procedure, shortened: as §1

[17] = compound: CC1=C(C2=C(C=C1)C(=O)C3=CC=CC=C3N2CCCN)C
Procedure, shortened: as §1

[18] = compound: CC1=C(C=C(C=C1)NC(=O)C2=CC(=CC=C2)C(C)(C)C#N)NC3=CC4=C(C=C3)N=CN(C4=O)C
Procedure, shortened: as §1

[19] = compound: CC1=C(C=C(C=C1)NC(=O)C2=CC(=CC=C2)N(C)C)NC(=O)C3=CC=C(C=C3)O
Procedure, shortened: as §1

[20] = compound: CC1=CC=C(C=C1)SC2=C3C=C(SC3=CN=C2)C(=O)N
Procedure, shortened: as §1

Measured: log2 fold change

GMEB2 (UniProt Q9UKD1)
inactive: [1] -0.018 | [2] -0.006 | [3] -0.127 | [4] -0.005 | [5] -0.041 | [6] -0.024 | [7] 0.06 | [8] -0.002 | [9] -0.031 | [10] -0.013 | [11] 0.032 | [12] -0.03 | [13] 0.007 | [14] -0.017 | [15] 0.007 | [16] 0.032 | [17] 0.127 | [18] 0.024 | [19] 0.071 | [20] 0.027

GHDC (UniProt Q8N2G8)
inactive: [1] 0.008 | [2] 0.001 | [3] -0.107 | [4] -0.053 | [5] -0.033 | [6] 0.019 | [7] -0.053 | [8] -0.064 | [9] 0.206 | [10] -0.012 | [11] 0.073 | [12] 0.022 | [13] 0.023 | [14] 0.067 | [15] 0.058 | [16] 0.035 | [17] 0.07 | [18] 0.011 | [19] 0.014 | [20] 0.034

GIT2 (UniProt Q14161)
inactive: [1] 0.024 | [2] 0.028 | [3] 0.074 | [4] -0.032 | [5] -0.063 | [6] -0.009 | [7] -0.117 | [8] 0 | [9] 0.122 | [10] 0.013 | [11] -0.017 | [12] -0.038 | [13] 0.046 | [14] -0.024 | [15] 0.085 | [16] 0 | [17] -0.097 | [18] 0.073 | [19] -0.004 | [20] -0.002

GPALPP1 (UniProt Q8IXQ4)
inactive: [1] -0.02 | [2] -0.005 | [3] 0.025 | [4] -0.011 | [5] 0.023 | [6] -0.015 | [7] 0.006 | [8] -0.042 | [9] 0.043 | [10] 0.013 | [11] 0.079 | [12] -0.03 | [13] -0.004 | [14] -0.005 | [15] 0.008 | [16] 0.041 | [17] -0.047 | [18] 0.029 | [19] 0.008 | [20] -0.018

GPATCH1 (UniProt Q9BRR8)
inactive: [1] 0.046 | [2] 0.038 | [3] -0.059 | [4] -0.073 | [5] -0.092 | [6] 0.039 | [7] 0.017 | [8] -0.031 | [9] 0.01 | [10] 0.013 | [11] -0.031 | [12] -0.008 | [13] 0.171 | [14] 0.058 | [15] 0.009 | [16] 0.113 | [17] -0.067 | [18] 0.02 | [19] -0.086 | [20] -0.011

GNB3 (UniProt P16520)
inactive: [1] 0.007 | [2] -0.043 | [3] -0.001 | [4] -0.037 | [5] -0.038 | [6] -0.036 | [7] -0.013 | [8] -0.052 | [9] -0.024 | [10] 0.057 | [11] -0.028 | [12] -0.087 | [13] 0.064 | [14] -0.07 | [15] -0.065 | [16] -0.042 | [17] 0.019 | [18] 0.082 | [19] 0.116 | [20] -0.073

GLRX5 (UniProt Q86SX6)
inactive: [1] 0.033 | [2] 0.067 | [3] 0.016 | [4] -0.042 | [5] -0.039 | [6] 0.031 | [7] -0.058 | [8] 0.057 | [9] 0.102 | [10] 0.018 | [11] 0.019 | [12] -0.006 | [13] -0.003 | [14] 0.008 | [15] 0.008 | [16] -0.103 | [17] 0 | [18] 0.064 | [19] -0.068 | [20] -0.016

GP1BB isoform 2 (UniProt P13224)
inactive: [1] 0.002 | [2] 0.063 | [3] -0.012 | [4] -0.035 | [5] 0.006 | [6] -0.034 | [7] 0.021 | [8] 0.074 | [9] -0.014 | [10] -0.024 | [11] 0.039 | [12] 0.003 | [13] 0.017 | [14] 0.009 | [15] 0.03 | [16] 0.036 | [17] 0.053 | [18] -0.087 | [19] 0.08 | [20] 0.031

GOT1 (UniProt P17174)
inactive: [1] -0.007 | [2] -0.002 | [3] 0.007 | [4] -0.018 | [5] 0.006 | [6] 0.008 | [7] 0.018 | [8] 0.045 | [9] 0.015 | [10] 0.022 | [11] 0.004 | [12] 0.01 | [13] -0.009 | [14] -0.005 | [15] -0.006 | [16] -0.032 | [17] -0.002 | [18] 0.019 | [19] -0.021 | [20] -0.016

GK (UniProt P32189)
inactive: [1] -0.015 | [2] -0.004 | [3] -0.035 | [4] 0 | [5] 0.028 | [6] -0.007 | [7] -0.038 | [8] 0.01 | [9] -0.007 | [10] 0.006 | [11] 0.02 | [12] 0.029 | [13] 0.061 | [14] 0.008 | [15] -0.027 | [16] 0.024 | [17] 0.019 | [18] 0.008 | [19] -0.009 | [20] -0.032

GINS1 (UniProt Q14691)
inactive: [1] -0.048 | [2] 0.076 | [3] 0.031 | [4] 0.029 | [5] 0.044 | [6] -0.005 | [7] -0.004 | [8] -0.037 | [9] 0.012 | [10] 0 | [11] -0.027 | [12] -0.002 | [13] 0.01 | [14] 0.034 | [15] -0.024 | [16] 0.027 | [17] 0.002 | [18] 0.024 | [19] -0.009 | [20] 0.018

GOLPH3 (UniProt Q9H4A6)
inactive: [1] 0.022 | [2] -0.041 | [3] -0.075 | [4] 0.017 | [5] 0.012 | [6] 0.004 | [7] 0.019 | [8] -0.008 | [9] -0.02 | [10] 0.035 | [11] 0.024 | [12] 0 | [13] 0.034 | [14] -0.019 | [15] 0.043 | [16] -0.023 | [17] 0.001 | [18] -0.02 | [19] -0.023 | [20] 0.004

Looked up one by one from above, 2 records:
GPATCH1 (UniProt Q9BRR8)
inactive: [1] 0.046 | [2] 0.038 | [3] -0.059 | [4] -0.073 | [5] -0.092 | [6] 0.039 | [7] 0.017 | [8] -0.031 | [9] 0.01 | [10] 0.013 | [11] -0.031 | [12] -0.008 | [13] 0.171 | [14] 0.058 | [15] 0.009 | [16] 0.113 | [17] -0.067 | [18] 0.02 | [19] -0.086 | [20] -0.011

GP1BB isoform 2 (UniProt P13224)
inactive: [1] 0.002 | [2] 0.063 | [3] -0.012 | [4] -0.035 | [5] 0.006 | [6] -0.034 | [7] 0.021 | [8] 0.074 | [9] -0.014 | [10] -0.024 | [11] 0.039 | [12] 0.003 | [13] 0.017 | [14] 0.009 | [15] 0.03 | [16] 0.036 | [17] 0.053 | [18] -0.087 | [19] 0.08 | [20] 0.031

Later entries:

GIGYF2 (UniProt Q6Y7W6)
inactive: [1] -0.011 | [2] -0.033 | [3] -0.024 | [4] -0.016 | [5] 0.018 | [6] 0.005 | [7] -0.005 | [8] 0.006 | [9] -0.005 | [10] 0.002 | [11] -0.01 | [12] 0.004 | [13] 0.014 | [14] -0.016 | [15] 0.029 | [16] -0.015 | [17] 0.01 | [18] 0.007 | [19] -0.006 | [20] 0.023

GGNBP2 (UniProt Q9H3C7)
inactive: [1] -0.012 | [2] -0.01 | [3] 0.074 | [4] -0.045 | [5] -0.102 | [6] 0.004 | [7] -0.006 | [8] -0.011 | [9] 0.06 | [10] 0.006 | [11] -0.011 | [12] -0.01 | [13] -0.002 | [14] -0.069 | [15] 0.027 | [16] 0.023 | [17] -0.029 | [18] 0.026 | [19] 0.044 | [20] 0.022

GLG1 isoform 2 (UniProt Q92896)
inactive: [1] -0.017 | [2] -0.034 | [3] 0.008 | [4] 0.064 | [5] -0.022 | [6] 0.021 | [7] 0.007 | [8] -0.002 | [9] 0.011 | [10] -0.021 | [11] -0.001 | [12] 0.009 | [13] -0.003 | [14] -0.037 | [15] -0.016 | [16] 0.024 | [17] -0.011 | [18] -0.024 | [19] 0.009 | [20] 0.013

GPKOW (UniProt Q92917)
inactive: [1] -0.011 | [2] 0.009 | [3] 0 | [4] -0.004 | [5] -0.022 | [6] 0.024 | [7] -0.006 | [8] -0.003 | [9] 0.007 | [10] 0.002 | [11] 0.007 | [12] -0.005 | [13] 0.009 | [14] -0.03 | [15] 0 | [16] 0 | [17] 0.027 | [18] -0.003 | [19] -0.006 | [20] 0.009
